Measurements taken from article doi:10.1101/2025.08.14.670437.
Results are given in words; binding and its absence hold for the method and conditions named. In cells and extracts the contact can be indirect. These calls come from enrichment with a bait or labelling near it, and not all partners need be listed. A no says only that the protein was not detected with the bait. One block for each molecule: values may come before it.

Sequences of proteins named here, by UniProt entry; tags and fusion partners are left off.
UniProt Q96PV6: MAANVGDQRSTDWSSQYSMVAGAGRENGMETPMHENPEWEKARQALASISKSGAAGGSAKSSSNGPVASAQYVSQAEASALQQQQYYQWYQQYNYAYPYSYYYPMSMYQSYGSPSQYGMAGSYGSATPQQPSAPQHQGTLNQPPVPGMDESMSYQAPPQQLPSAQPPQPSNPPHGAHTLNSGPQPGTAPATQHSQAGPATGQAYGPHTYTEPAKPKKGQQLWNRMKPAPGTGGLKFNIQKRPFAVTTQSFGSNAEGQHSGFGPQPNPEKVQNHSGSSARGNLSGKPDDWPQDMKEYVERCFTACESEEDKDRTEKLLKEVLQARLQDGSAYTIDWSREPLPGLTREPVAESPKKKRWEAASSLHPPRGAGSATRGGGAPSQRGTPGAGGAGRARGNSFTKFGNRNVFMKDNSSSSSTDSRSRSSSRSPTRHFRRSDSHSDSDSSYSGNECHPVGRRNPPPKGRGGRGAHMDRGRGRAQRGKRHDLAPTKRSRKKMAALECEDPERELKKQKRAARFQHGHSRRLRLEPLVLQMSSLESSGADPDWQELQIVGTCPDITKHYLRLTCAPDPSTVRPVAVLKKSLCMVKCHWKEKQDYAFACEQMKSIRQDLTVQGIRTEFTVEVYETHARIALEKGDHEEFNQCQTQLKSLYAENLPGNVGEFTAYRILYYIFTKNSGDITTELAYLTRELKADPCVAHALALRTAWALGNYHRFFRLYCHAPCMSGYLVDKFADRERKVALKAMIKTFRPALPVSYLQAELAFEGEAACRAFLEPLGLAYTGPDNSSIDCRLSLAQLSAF
UniProt P49790: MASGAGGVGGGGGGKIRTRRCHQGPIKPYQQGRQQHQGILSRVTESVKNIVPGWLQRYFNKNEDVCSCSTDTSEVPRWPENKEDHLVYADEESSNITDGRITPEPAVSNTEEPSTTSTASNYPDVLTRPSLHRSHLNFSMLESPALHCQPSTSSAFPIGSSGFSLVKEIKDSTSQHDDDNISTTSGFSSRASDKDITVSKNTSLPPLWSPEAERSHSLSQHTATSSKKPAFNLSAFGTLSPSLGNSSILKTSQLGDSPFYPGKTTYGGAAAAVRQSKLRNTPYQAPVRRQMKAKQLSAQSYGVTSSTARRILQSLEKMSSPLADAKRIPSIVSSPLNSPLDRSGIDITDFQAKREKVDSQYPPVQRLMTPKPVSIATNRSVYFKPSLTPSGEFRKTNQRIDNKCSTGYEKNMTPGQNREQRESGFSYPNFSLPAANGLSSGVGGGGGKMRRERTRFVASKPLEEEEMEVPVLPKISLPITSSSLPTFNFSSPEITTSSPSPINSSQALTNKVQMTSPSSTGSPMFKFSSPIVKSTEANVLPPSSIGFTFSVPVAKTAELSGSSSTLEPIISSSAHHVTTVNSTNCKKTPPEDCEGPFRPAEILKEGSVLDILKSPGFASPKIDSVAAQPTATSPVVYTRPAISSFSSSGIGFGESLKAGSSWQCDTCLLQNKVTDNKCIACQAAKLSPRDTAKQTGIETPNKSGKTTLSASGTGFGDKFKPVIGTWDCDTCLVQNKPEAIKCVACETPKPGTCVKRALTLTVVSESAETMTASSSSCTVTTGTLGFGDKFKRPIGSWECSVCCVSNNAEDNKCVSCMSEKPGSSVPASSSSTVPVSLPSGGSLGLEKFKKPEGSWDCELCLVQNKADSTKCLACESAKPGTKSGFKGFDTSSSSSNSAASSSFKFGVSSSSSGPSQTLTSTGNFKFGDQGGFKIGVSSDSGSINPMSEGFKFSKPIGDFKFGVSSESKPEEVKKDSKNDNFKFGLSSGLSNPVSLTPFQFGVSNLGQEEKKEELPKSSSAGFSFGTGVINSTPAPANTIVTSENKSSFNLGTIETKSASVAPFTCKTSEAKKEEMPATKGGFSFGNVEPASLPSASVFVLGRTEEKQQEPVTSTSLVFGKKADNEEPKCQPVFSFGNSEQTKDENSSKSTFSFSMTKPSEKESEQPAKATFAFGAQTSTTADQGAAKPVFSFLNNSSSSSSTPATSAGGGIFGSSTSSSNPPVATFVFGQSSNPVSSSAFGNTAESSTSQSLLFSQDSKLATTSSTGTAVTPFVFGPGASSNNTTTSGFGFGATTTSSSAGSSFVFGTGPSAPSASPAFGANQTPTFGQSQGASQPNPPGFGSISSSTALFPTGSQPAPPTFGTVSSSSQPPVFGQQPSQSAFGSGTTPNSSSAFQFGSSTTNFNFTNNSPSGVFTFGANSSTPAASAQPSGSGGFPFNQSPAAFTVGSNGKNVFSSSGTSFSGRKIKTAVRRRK

Target: FLAG-LENG8 Full length (human) (UniProt Q96PV6)
Assay: affinity purification with mass spectrometry; FLAG-tagged bait over-expressed in HEK293T; cleared sonicated lysate (20 mM HEPES-NaOH pH 7.9, 150 mM NaCl, 0.2% NP-40) on anti-FLAG M2 agarose, 4 °C, 2 h; eluted with 3× FLAG peptide; hits at Fold Enrichment ≥ 1.5 in both replicates

binding: no binding
Molecule: NUP153 (from UniProt P49790 1-1475)

binding: no binding
B1: ENY2 (protein, UniProt Q9NPA8 1-101)
chain: MVVSKMNKDAQMRAAINQKLIETGERERLKELLRAKLIECGWKDQLKAHCKEVIKEKGLEHVTVDDLVAEITPKGRALVPDSVKKELLQRIRTFLAQHASL

binding: no binding
B2: NUP50 (protein, UniProt Q9UKX7 1-468)
chain: MAKRNAEKELTDRNWDQEDEAEEVGTFSMASEEVLKNRAIKKAKRRNVGFESDTGGAFKGFKGLVVPSGGGRFSGFGSGAGGKPLEGLSNGNNITSAPPFASAKAAADPKVAFGSLAANGPTTLVDKVSNPKTNGDSQQPSSSGLASSKACVGNAYHKQLAALNCSVRDWIVKHVNTNPLCDLTPIFKDYEKYLANIEQQHGNSGRNSESESNKVAAETQSPSLFGSTKLQQESTFLFHGNKTEDTPDKKMEVASEKKTDPSSLGATSASFNFGKKVDSSVLGSLSSVPLTGFSFSPGNSSLFGKDTTQSKPVSSPFPTKPLEGQAEGDSGECKGGDEEENDEPPKVVVTEVKEEDAFYSKKCKLFYKKDNEFKEKGIGTLHLKPTANQKTQLLVRADTNLGNILLNVLIPPNMPCTRTGKNNVLIVCVPNPPIDEKNATMPVTMLIRVKTSEDADELHKILLEKKDA

binding: no binding
B3: CETN3 (protein, UniProt O15182 1-167)
chain: MSLALRSELVVDKTKRKKRRELSEEQKQEIKDAFELFDTDKDEAIDYHELKVAMRALGFDVKKADVLKILKDYDREATGKITFEDFNEVVTDWILERDPHEEILKAFKLFDDDDSGKISLRNLRRVARELGENMSDEELRAMIEEFDKDGDGEINQEEFIAIMTGDI
